Earlier results on 1 molecule are cited in patent US20210315865A1 (Biohaven Therapeutics Ltd., priority 2018, published 2021).

For this series the following is noted: drug substance.

For `Nc1nc2ccc(OC(F)(F)F)cc2s1` [riluzole, 6-(trifluoromethoxy)benzothiazol-2-amine], the chemical stability entry is reported as “pH dependent chemical stability”.
